These are yes or no findings as the source states them, for the method shown. Binding seen in cells or lysates may run through a third protein. Some entries that bind do so weakly or less than the wild type.
Key:
[1] = target: CBP (CREB binding protein), endogenous (human (endogenous in MOLM-13 and MV4-11)) (UniProt Q92793); experiment: co-IP; endogenous proteins; MOLM-13 and MV4-11 cell lysates, IP with CBP, DOT1L or control IgG, protein A/G agarose, western blotting
[2] = target: DOT1L (disruptor of telomeric silencing one like), endogenous (human (endogenous in MOLM-13 and MV4-11)) (UniProt Q8TEK3); experiment: as above

Amino acid sequences for entries named in this document (tags omitted).
UniProt Q92793: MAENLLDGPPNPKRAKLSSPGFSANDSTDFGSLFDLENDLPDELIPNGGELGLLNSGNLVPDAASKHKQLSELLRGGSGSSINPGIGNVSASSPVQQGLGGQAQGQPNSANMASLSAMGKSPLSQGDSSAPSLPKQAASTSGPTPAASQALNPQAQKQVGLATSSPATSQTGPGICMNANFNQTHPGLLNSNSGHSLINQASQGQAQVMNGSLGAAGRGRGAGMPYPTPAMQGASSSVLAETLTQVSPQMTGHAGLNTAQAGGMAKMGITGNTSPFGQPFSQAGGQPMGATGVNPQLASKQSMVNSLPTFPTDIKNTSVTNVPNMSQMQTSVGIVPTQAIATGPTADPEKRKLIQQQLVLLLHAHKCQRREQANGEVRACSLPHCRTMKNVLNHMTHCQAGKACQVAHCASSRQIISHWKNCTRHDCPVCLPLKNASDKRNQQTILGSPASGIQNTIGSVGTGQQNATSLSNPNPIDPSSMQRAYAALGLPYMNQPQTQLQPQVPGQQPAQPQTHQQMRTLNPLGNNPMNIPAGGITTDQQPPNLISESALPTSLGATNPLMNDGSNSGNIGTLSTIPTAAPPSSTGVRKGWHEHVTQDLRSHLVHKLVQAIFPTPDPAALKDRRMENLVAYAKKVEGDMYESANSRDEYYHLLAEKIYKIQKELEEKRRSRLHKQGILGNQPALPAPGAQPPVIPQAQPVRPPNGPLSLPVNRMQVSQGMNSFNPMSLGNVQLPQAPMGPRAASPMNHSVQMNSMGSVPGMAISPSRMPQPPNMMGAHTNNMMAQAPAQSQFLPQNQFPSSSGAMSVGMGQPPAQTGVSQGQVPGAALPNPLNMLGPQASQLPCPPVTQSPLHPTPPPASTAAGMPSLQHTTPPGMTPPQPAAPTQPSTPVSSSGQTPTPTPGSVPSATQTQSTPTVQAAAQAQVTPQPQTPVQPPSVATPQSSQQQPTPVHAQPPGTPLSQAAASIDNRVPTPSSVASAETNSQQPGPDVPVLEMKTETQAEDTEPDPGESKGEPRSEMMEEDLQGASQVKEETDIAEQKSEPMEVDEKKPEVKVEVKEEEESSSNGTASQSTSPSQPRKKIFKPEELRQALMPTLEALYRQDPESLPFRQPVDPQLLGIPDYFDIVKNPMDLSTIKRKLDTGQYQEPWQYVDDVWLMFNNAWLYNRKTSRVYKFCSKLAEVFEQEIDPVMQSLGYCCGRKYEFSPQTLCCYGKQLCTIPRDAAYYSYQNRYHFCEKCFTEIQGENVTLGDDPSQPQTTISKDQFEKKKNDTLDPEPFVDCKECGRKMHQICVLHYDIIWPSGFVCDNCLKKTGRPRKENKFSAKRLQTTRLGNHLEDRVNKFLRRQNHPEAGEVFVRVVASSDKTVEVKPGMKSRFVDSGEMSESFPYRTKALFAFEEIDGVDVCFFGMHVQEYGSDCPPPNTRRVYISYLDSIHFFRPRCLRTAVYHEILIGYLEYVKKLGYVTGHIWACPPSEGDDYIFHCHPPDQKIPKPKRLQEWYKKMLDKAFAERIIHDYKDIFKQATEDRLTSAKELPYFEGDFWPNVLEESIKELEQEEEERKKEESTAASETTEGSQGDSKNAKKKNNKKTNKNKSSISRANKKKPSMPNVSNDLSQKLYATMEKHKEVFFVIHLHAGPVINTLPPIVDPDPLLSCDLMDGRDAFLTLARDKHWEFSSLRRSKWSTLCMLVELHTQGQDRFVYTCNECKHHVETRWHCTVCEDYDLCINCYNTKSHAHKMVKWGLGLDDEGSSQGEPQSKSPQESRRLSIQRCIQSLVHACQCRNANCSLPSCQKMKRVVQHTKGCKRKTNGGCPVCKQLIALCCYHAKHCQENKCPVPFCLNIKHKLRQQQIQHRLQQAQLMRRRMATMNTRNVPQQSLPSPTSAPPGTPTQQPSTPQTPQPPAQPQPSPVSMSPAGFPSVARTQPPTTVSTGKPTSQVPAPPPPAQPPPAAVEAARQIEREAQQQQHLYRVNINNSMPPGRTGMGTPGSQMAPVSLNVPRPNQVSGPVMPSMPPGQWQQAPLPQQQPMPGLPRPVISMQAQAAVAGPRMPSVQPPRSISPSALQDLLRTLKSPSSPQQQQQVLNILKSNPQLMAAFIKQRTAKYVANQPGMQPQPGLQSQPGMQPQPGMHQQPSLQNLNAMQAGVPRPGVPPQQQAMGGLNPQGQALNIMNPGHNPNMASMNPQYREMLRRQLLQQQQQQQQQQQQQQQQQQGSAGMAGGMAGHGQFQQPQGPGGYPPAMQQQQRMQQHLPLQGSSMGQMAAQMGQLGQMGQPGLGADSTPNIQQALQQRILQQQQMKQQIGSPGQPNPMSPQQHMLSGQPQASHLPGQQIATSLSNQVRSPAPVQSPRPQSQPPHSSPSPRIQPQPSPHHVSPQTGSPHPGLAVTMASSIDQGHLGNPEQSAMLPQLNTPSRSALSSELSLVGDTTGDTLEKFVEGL
UniProt Q8TEK3: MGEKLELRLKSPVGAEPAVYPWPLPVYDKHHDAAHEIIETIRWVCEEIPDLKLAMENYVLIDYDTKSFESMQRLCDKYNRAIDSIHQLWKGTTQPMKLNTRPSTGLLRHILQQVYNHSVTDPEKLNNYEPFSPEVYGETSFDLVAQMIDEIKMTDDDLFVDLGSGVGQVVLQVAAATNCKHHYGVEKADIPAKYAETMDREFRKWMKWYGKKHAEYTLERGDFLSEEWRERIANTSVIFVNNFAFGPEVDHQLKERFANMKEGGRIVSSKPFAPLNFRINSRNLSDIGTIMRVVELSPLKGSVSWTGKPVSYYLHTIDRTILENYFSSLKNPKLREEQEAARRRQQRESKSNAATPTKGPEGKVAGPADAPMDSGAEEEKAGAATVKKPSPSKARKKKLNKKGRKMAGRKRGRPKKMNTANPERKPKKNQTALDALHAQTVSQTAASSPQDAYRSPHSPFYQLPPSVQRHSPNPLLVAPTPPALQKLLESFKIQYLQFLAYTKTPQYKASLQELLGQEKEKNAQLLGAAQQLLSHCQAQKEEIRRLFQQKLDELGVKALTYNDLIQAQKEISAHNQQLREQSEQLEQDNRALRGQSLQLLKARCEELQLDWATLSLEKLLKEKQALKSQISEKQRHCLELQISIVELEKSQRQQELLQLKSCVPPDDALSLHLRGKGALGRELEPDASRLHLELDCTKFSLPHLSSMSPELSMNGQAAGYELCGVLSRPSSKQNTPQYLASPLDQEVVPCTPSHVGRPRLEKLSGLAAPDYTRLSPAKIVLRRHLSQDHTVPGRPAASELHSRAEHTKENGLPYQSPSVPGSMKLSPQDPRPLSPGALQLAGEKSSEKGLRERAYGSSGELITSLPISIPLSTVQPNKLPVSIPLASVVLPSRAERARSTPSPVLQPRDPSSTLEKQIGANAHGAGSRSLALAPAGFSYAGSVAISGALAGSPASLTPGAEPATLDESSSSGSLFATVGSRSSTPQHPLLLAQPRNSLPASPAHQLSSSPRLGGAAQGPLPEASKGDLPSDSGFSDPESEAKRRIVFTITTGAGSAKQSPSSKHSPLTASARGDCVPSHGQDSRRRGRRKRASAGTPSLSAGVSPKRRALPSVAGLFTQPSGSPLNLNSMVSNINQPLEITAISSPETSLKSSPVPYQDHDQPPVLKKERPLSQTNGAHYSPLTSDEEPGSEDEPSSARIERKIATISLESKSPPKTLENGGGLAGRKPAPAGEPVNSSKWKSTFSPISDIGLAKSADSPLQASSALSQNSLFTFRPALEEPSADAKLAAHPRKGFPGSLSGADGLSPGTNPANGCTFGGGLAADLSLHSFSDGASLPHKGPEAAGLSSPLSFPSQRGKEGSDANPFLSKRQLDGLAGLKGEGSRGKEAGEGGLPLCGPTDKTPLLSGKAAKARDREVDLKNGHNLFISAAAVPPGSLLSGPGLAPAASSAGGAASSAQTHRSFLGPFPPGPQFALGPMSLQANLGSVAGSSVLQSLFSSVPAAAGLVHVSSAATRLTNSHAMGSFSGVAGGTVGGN

Substance	binding [1]	binding [2]
DOT1L (disruptor of telomeric silencing one like), endogenous (from UniProt Q8TEK3 1-1537)	binds	–
CBP (CREB binding protein), endogenous (from UniProt Q92793 1-2442)	–	binds

— PMC11178498
